These results are taken from article PMC8566228.

No constants are given. Whether binding was seen depends on the method and setting. In cells and extracts the contact can be indirect. Some results given as binding are weak or reduced against the parent protein; the word gives no strength.

The target in this experiment is Zonula occludens-1 (rat (endogenous in IEC-6)). Description: co-IP; IEC-6 lysate (1% NP40, 20 mM Tris, 150 mM NaCl, 2 mM EDTA, pH 7.4); IP antibody on protein G Sepharose, 500 ug protein extract, 1 h; western blot; cells with or without dexamethasone and/or SP-D; each protein in turn as bait. On the technique in general: A western blot detects proteins with antibodies after separation by electrophoresis.

B1: heat-shock protein APG2 (protein, UniProt O88600 1-840)
chain: MSVVGIDLGFQSCYVAVARAGGIETIANEYSDRCTPACVSFGPKNRSVGAAAKSQVISNAKNTVQGFKRFHGRAFSDPFVEAEKSNLAYDIVQLPTGLTGIKVTYMEEERNFTTEQVTAMLLSKLKETAESVLKKPVVDCVVSVPSFYTDAERRSVMDATQIAGLNCLRLMNETTAVALAYGIYKQDLPALEEKPRNVVFVDMGHSAYQVSVCAFNRGKLKVLATAFDTTLGGRKFDEVLVNHFCEEFGKKYKLDIKSKVRALLRLSQECEKLKKLMSANASDLPLSIECFMNDIDVSGTMNRGKFLEMCDDLLARVEPPLRSILDQSKLKKEDIYAVEIVGGATRIPAVKEKISKFFGKELSTTLNADEAVTRGCALQCAILSPAFKVREFSITDVVPYPISLRWNSPAEEGSSDCEVFPKNHAAPFSKVLTFYRKEPFTLEAYYSSPQDLPYPDPAIAQFSVQKVTPQSDGSSSKVKVKVRVNVHGIFSVSSAALVEVHKSEESEEPMETDQNAKEEEKMQVDQEEPHTEEQQPQTPAENKAESEEMETSQAGSKDKKMDQPPQAKKAKVKTSTVDLPIESQLLWQLDREMLGLYTENEGKMIMQDKLEKERNDAKNAVEEYVYEMRDKLSGEYEKFVSEDDRNNFTLKLEDTENWLYEDGEDQPKQVYVDKLAELRTLGQPIKTRFQESEERPKLFEELGKQIQQYMKVISSFKNKEDQYEHLDAADMTKVEKSTNEAMEWMNSKLNLQNKQSLTADPVVKTKEIEAKIKELTNICSPIISKPKPKVEPPKEEPKHAEQNGPVDGQGDNPGTQAAEHGADTAVPSDGDKKLPEMDID
As to B1, the binding result is listed as “binds”.
